# Laboratory results published in PubChem BioAssay AID1259415 (National Center for Advancing Translational Sciences (NCATS), 2018).
# The campaign covered roughly 410,000 compounds. About 18,000 (4.4%) were called active. Inconclusive means that the source gave no clear call. Such entries were picked first, then a sample of the others. Rule as the data show it: active = activity change below about -60%; inconclusive = no clear call, values can overlap the other calls; inactive = above about -39%.
# Assay: qHTS Assay for inhibitors of the human cytomegalovirus (HCMV)
# Settings: HFF cells, HCMV-luciferase reporter, 72 h; at 57.5 µM; hits give low values
# Procedure, shortened: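 Compounds were evaluated in HFFs infected with an HCMV luciferase reporter virus (MOI 1 PFU/cell). Luciferase in lysates collected 72 h post infection served as the replication measure.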
# % is scaled to controls: 0 for no effect and ±100 for the full control effect.
row,Compound,"activity change, negative = inhibition"
1,Cc1ccc(OCCC(=O)Nc2ccc(C)c(S(=O)(=O)N3CCOCC3)c2)cc1,inactive: 0%
2,O=C(c1cccc(C(F)(F)F)c1)C1CCCN(C(=O)CCc2cnccn2)C1 (stereo not given),inconclusive: -43%
3,CCOc1ccc(C(C)=O)cc1COC(=O)CNC(=O)C12CC3CC(CC(C3)C1)C2,inactive: -1.83%
4,Nc1ccc2nc3c(=O)n(C4CCCCC4)c(=O)[nH]c3nc2c1,inactive: 27.8%
5,C[C@H](O)C(=O)C1=Nc2c(nc(N)[nH]c2=O)NC1,inconclusive: -42.9%
6,Cc1nc2cc(-c3cccc(F)c3)nn2c(C)c1CCC(=O)Nc1ccccc1C(N)=O,inactive: -34.6%
7,Cc1nc2sccn2c(=O)c1S(=O)(=O)N1CCN(c2cccc(C(F)(F)F)c2)CC1,inconclusive: -60%
8,N/C(=N\OC(=O)c1ccc(Cl)c([N+](=O)[O-])c1)c1ccccn1,active: -63.2%
9,CC(C)C1Cc2c(sc3[nH]c(=S)n(Cc4ccccc4)c(=O)c23)CO1 (stereo not given),inconclusive: -44.6%
10,Cn1nc(C(F)(F)F)c(C#N)c1N1CCN(c2ccc(F)cc2)CC1,active: -72.6%
11,Cc1cc(C)cc(NC(=O)Cn2c(=O)n(-c3ccc(C)c(C)c3)c(=O)c3oc4ccccc4c32)c1,inactive: -10.4%
12,O=C(O)c1ccccc1NC(=O)c1cc2ccccc2oc1=O,inactive: 40.6%
13,C/C(=N\NC(=O)c1ccc(CSc2nncn2C)cc1)c1ccc(Cl)cc1,inconclusive: -45.2%
14,CC(C)N1CCC(N2CCN(CC#Cc3ccccc3)CC2CCO)CC1 (stereo not given),inactive: 3.23%
15,COc1ccc(OC)c(NC(=O)C(=O)NNC(=O)C23CC4CC(CC(C4)C2)C3)c1,inconclusive: -46.5%
16,Cc1ccc(-c2cn3nc(N4CCCC(C(=O)NCc5ccc(F)cc5)C4)sc3n2)cc1 (stereo not given),inactive: 0%
17,CC(C)n1cc(NC(=O)COc2ccccc2Cl)cn1,active: -61.4%
18,Cc1ccccc1N1CC(O)(c2cccs2)[N+]2=C1CCCC2 (stereo not given),active: -60.2%
19,C=CCOc1ccccc1CNn1c(C)n[nH]c1=S,inconclusive: -46.8%
20,CCCCOc1ccccc1C(=O)N(Cc1sccc1C)C1CCS(=O)(=O)C1 (stereo not given),inactive: -31.4%
21,CCN1CCSc2ccc(C(=O)NCc3cccc(Br)c3)cc21,inconclusive: -45.7%
22,CC(NS(=O)(=O)c1ccccc1Cl)C1CC2CCC1C2 (stereo not given),inconclusive: -53.5%
23,Cc1noc(-c2ccccc2OCC(=O)Nc2ccccc2[N+](=O)[O-])n1,inconclusive: -59.4%
24,O=C(NCC1CCN(Cc2cccc(Cl)c2)CC1)Nc1ccc(F)c(Cl)c1,inconclusive: -56.6%
25,COc1cccc(-c2csc(N3CCN(CC(=O)NNC(=O)c4ccc(Br)cc4)CC3)n2)c1,inactive: -10.8%
26,O=C(N1CCN(c2cccc(Cl)c2)CC1)C1(c2cccs2)CCOCC1,inconclusive: -42.9%
27,CCN(CC)C(=O)c1oc2ccc(S(=O)(=O)N3CCCCCC3)cc2c1C,inconclusive: -57.9%
28,Fc1ccc(CNn2cnnc2SCc2ccc(F)cc2)cc1,inconclusive: -58.5%

row,Compound,"activity change, negative = inhibition"
1,NC(=O)C1CCN(c2ncc(C(F)(F)F)cc2Cl)CC1,inconclusive: -41.9%
2,Cc1c(C(=O)NCCSCc2ccccc2Cl)cccc1[N+](=O)[O-],inconclusive: -40.4%
3,COC(=O)CN(C#N)c1nc(C)cc(C)n1,inconclusive: -42.8%
4,Cc1csc(=O)n1CCC(=O)OCC(=O)c1c(N)n(CC(C)C)c(=O)n(C)c1=O,inconclusive: -46.9%
5,COc1ccc(C(=O)NC(c2ccccc2Cl)c2cc(Cl)c3cccnc3c2O)cc1 (stereo not given),active: -98%
6,COc1ccc(N2CCN(C(=O)c3cc(=O)[nH]c4ccccc34)CC2)cc1,inconclusive: -40.2%
7,CN(C)C(=O)Oc1ccc(OCc2nc3ccccc3[nH]2)cc1,inactive: 31.6%
8,CCOc1ccc(CNC(=O)CSc2c3c(nc4cc(Cl)ccc24)CCCC3)cc1,inconclusive: -54%
9,CCOC(=O)C1(CCOc2ccccc2)CCN(Cc2ccc(-n3cccn3)cc2)CC1,active: -61.4%
10,CCn1c(C)nc2cc(C(=O)NNC(=O)Nc3ccc(Cl)cc3)ccc21,inconclusive: -41.1%
11,COc1ccccc1CNC(=O)CCS(=O)(=O)c1ccc2c(c1)oc(=O)n2C,inactive: 13.4%
12,O=C(CCN1CCOCC1)NCC(=O)Nc1ccc(Br)cc1C(=O)c1ccccc1,inactive: -13.8%
13,CCOC(=O)c1ccc(NC(=O)C2CCCN(S(=O)(=O)c3ccc(F)cc3)C2)cc1 (stereo not given),inactive: 39.4%
14,CC(C)c1ccc(S(=O)(=O)N2CCN(C(=O)n3ccnc3)CC2)cc1,inconclusive: -59.2%
15,Cn1c(SCC(=O)Nc2cccc(F)c2)nc2c(c1=O)SCC2,inconclusive: -54.2%
16,O=C(COc1ccccc1F)Nc1ccc2nc(SCC(=O)N3CCOCC3)sc2c1,active: -68.5%
17,O=C(c1ccc(CSc2nc3ccncc3[nH]2)cc1)N1CCCCCC1,inconclusive: -59.3%
18,Cc1ccc(NC(=O)c2oc3ccc(S(=O)(=O)N(C)C4CCCCC4)cc3c2C)c(C)c1,inconclusive: -53.2%
19,CCCc1cc(=O)oc2cc(OCC(=O)NCCc3c[nH]c4ccccc34)ccc12,inconclusive: -45.2%
20,CCOc1ccccc1C(=O)Nc1cccc2cccnc12,inconclusive: -45.1%
21,COc1ccc(NCC(=O)Nc2cccc(C(F)(F)F)c2)cc1S(=O)(=O)N1CCOCC1,inactive: -11.7%
22,Nc1ccc(C(=O)OCC(=O)N2c3ccccc3Sc3ccccc32)cc1[N+](=O)[O-],inconclusive: -46.3%
23,Cc1sc2ncnc(NCCc3ccc(S(N)(=O)=O)cc3)c2c1C,active: -76.4%
24,Cc1ccc(CN2C(=O)c3ccccc3Sc3ccc(C(=O)N4CCOCC4)cc32)cc1,inactive: -38.5%
25,COc1ccc(CNC(=S)N2CCN(S(=O)(=O)c3cccc(F)c3)CC2)cc1,inconclusive: -48.1%
26,COc1c(C=O)c2c(c(OC)c1OC)-c1ccc(OC)c(=O)cc1C(NC(C)=O)CC2 (stereo not given),active: -67.8%
27,CCc1ccc(N/C(=N/c2nc(C)cc(C)n2)NC(C)=O)cc1,active: -60%

# Another view of some results above.
row	Compound	activity change, negative = inhibition
7	CN(C)C(=O)Oc1ccc(OCc2nc3ccccc3[nH]2)cc1	inactive: 31.6%
10	CCn1c(C)nc2cc(C(=O)NNC(=O)Nc3ccc(Cl)cc3)ccc21	inconclusive: -41.1%
18	Cc1ccc(NC(=O)c2oc3ccc(S(=O)(=O)N(C)C4CCCCC4)cc3c2C)c(C)c1	inconclusive: -53.2%
25	COc1ccc(CNC(=S)N2CCN(S(=O)(=O)c3cccc(F)c3)CC2)cc1	inconclusive: -48.1%
